# About 2,100 (0.66%) of roughly 320,000 compounds were called active. The inconclusive results got no clear call from the source; some entries with a clear call stand among them for comparison. Calls come from the whole dose curve; as a rule, active = well fitted inhibition curve with a large enough effect in the signal ratio, with a control signal flat (not every such curve was filed as active); inconclusive = small, poorly fitted or top-dose-only effect, or effect the other way, or a change in a side signal; inactive = flat fitted curve, though single readings scatter; the % refers to the signal ratio. Where the call is inconclusive, the potency comes from a doubtful curve fit.
# Assay: qHTS Assay for Lipid Storage Modulators in Drosophila S3 Cells
# Settings: BODIPY lipid droplet fluorescence, 18-24 h, cells fed with added oleic acid; lipid storage change, negative = inhibition: at 46.1 µM (top of the series) unless noted
# Outline: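 Drosophila S3 cells loaded with oleic acid (400 uM, as added) and compounds at several concentrations; lipid droplets imaged by 488-nm laser-scanning cytometry, 500–530 nm intensity and object ratio to cell channel. Percent activity normalized to 20 uM Triacsin C.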
# % is set by controls: 0 for no effect and ±100 for the full control effect; potency is the fitted concentration of half-maximal effect.
Compound,Potency,"lipid storage change, negative = inhibition"
CN1/C(=C\C(=O)CN2C(=O)NC3(CCCCCC3)C2=O)C(C)(C)c2ccccc21,"inconclusive: 29.1 µM [falling, single point]",
Cc1ccc2c(C)c(C(=O)N(Cc3ccncc3)CC3CCCO3)oc2c1C (configuration not stated),,inconclusive: -84.4%
CON/C=C(\C=Nc1ccc(Cl)cc1Cl)c1ncc(C(F)(F)F)cc1Cl,,inconclusive: -2.03%
O=C(NCc1ccccc1)Nc1cccn(Cc2ccccc2F)c1=O,,inconclusive: 17.4%
C=CCOC(=O)/C(=C/c1cccc2ccccc12)NC(=O)c1ccccc1,"inconclusive: 5.8 µM [falling, single point]",
CCN(Cc1ccncc1)C(=O)c1cc(COc2ccc(OC)cc2Cl)on1,"inconclusive: 6.51 µM [activator, single point]",
O=C(Nc1ccc2c(c1)CCC2)c1cc(S(=O)(=O)N2CCN(c3ccccc3)CC2)ccc1Cl,"inconclusive: 6.51 µM [falling, single point]",
COc1cccc(C=O)c1OC(=O)N1CCOCC1,,inconclusive: -8.94%
COc1ccc(NC(=O)Cn2nnc(C(=O)NCc3ccccc3)c2N)cc1Cl,,inconclusive: -39.8%
COC(=O)c1ccccc1NC(=O)N1CCN(c2ccccc2F)CC1,,inactive
COCCNC(=O)/C(C#N)=C/c1ccc(C(=O)O)cc1,,inconclusive: 7.8%
CCCCN(C(=O)c1cc2c(s1)CCCCC2)c1c(N)n(CCC)c(=O)[nH]c1=O,,inconclusive: 10.9%
CCOc1ccc(C(C(=O)NC2CCCCC2)N(C(=O)c2ccccn2)c2cccnc2)cc1 (configuration not stated),,inconclusive: 44.2%
CC(=O)c1ccc(NC(=O)CCc2ccc(C)o2)cc1,"inconclusive: 3.26 µM [falling, single point]",
O=C(/C=C/c1cccc(Cl)c1)Nn1c(-c2cccs2)nc2ccccc2c1=O,"inconclusive: 0.58 µM [activator, full curve, poor fit]",
COc1ccccc1-c1nn(-c2ccccc2)cc1C(=O)N1CCc2ccccc2C1,active: 2.06 µM,
COc1ccc(-c2nnn(CC(=O)N(CC(=O)NC3CCCC3)c3ccccc3F)n2)cc1OC,,inconclusive: -51%
CCOc1ccc(-c2nnc(SCC(=O)NC3CC3)o2)cc1,,inconclusive: 39.7%
CCCn1c(CN2CCN(C(=O)OCC)CC2)nc2cc(NC(C)=O)ccc21,,inconclusive: -10.1%
COc1ccc(-n2c(O)c(/C=N/NS(=O)(=O)c3ccc(C)cc3)c3ccccc3c2=O)cc1OC,active: 8.2 µM,
CCc1ccccc1NC(=O)NCc1cccnc1,,inconclusive: -34.2%
CC(NC(=O)c1ccco1)C(=O)OCC(=O)c1ccc(Cl)s1 (configuration not stated),,inconclusive: -17.7%
CC(C)[C@H](NC(=O)c1ccccc1)C(=O)OCC(=O)N1CCN(C(=O)c2ccco2)CC1,,inconclusive: 0.877%
COc1ccccc1CCC(=O)Oc1ccc(C#N)cc1OC,"inconclusive: 0.116 µM [falling, single point]",
COC(=O)c1cc(-c2ccc(Br)cc2)c2c(=O)[nH]c(=O)n(C)c2n1,,inconclusive: 14.4%
COc1cc(C(=O)Nc2ccc(NC(=O)C3CCCCC3)nc2)cc(OC)c1OC,,inconclusive: -39.6%

# Record cards (already shown):
# COc1ccccc1CCC(=O)Oc1ccc(C#N)cc1OC in the list: Potency: inconclusive: 0.116 µM [falling, single point]
# CON/C=C(\C=Nc1ccc(Cl)cc1Cl)c1ncc(C(F)(F)F)cc1Cl in the list: lipid storage change, negative = inhibition: inconclusive: -2.03%
# C=CCOC(=O)/C(=C/c1cccc2ccccc12)NC(=O)c1ccccc1 in the list: Potency: inconclusive: 5.8 µM [falling, single point]

# Later entries:

Compound,Potency,"lipid storage change, negative = inhibition"
CC(C)(C)c1ccc(Cn2cnc(-c3ccc([N+](=O)[O-])cc3)c2)cc1,"inconclusive: 20.6 µM [falling, single point]",
COc1nccnc1NS(=O)(=O)c1ccc(NC(=S)NC(=O)c2ccc(F)c(F)c2)cc1,,inconclusive: 10.6%
CCC(C)N1CCN(S(=O)(=O)Cc2ccccc2)CC1 (configuration not stated),,inconclusive: 96.2%
CC(=O)c1c(C)[nH]c(C(=O)N2CCc3ccccc3C2)c1C,,inconclusive: -14.7%
CCC(=O)Nc1ccc2oc(-c3ccccc3Br)nc2c1,,inconclusive: -0.769%
Cn1c(CSCc2ccc(Cl)c(Cl)c2)n[nH]c1=S,"inconclusive: 6.51 µM [activator, single point]",
O=C(NCC1CCCO1)Nc1ccc(Cl)cc1 (configuration not stated),"inconclusive: 6.51 µM [falling, single point]",
CCCn1nnnc1NCc1ccccc1F,,inconclusive: 12.1%
O=C(CN1CC[C@@]2(O)CCCC[C@H]2[C@@H]1c1ccc(F)cc1)NCc1ccco1,,inconclusive: 7.3%
CSc1ncccc1C(=O)OCC(=O)NC1CCCC1,,inconclusive: 34.5%
CCSc1ccc(-c2ccc(C)cc2)nn1,,inconclusive: -13.5%
CCc1ccc(NC(=O)C2CCN(S(=O)(=O)c3c(C)noc3C)CC2)cc1,,inactive
CN(CC(=O)NCCc1ccc(S(N)(=O)=O)cc1)CC(=O)Nc1ccccc1Cl,,inconclusive: -6.88%
Cc1ccc(-c2nnc(CSc3nc4cc5c(cc4cc3C)OCO5)o2)cc1,"inconclusive: 29.1 µM [activator, single point]",
CC12CN3CC(C)(CN(C1)C3c1cc3ccccc3[nH]1)C2=O (configuration not stated),"inconclusive: 10.3 µM [falling, partial curve]",
O=C1OC2(CCCCC2)OC(=O)C1=CNc1nc2ccccc2s1,,inconclusive: -23.3%
CCOc1cccc(-c2nnc3sc(-c4cc(OC)c(OC)cc4OC)nn23)c1,,inconclusive: -16%
CC1(C)CC(NS(=O)(=O)c2ccc(C(C)(C)C)cc2)CC(C)(C)N1,"inconclusive: 4.11 µM [activator, full curve, poor fit]",
CCC(=O)c1cc2c(C)cc(=O)oc2c(C)c1OC(C)=O,,inconclusive: 23.2%
Cc1cccc2c(SCC(=O)NCC3CCCO3)nc(-c3ccc(F)cc3)nc12 (configuration not stated),,inconclusive: 34.8%
Cc1cc(S(=O)(=O)NC2CCCC2)ccc1-n1cnnn1,,inconclusive: 63.3%
CCN(C(=O)Cn1c(=O)n2nc(CCn3nc(C)cc3C)nc2c2ccccc21)c1cccc(C)c1,,inconclusive: 33.9%
COc1ccc(N2CC(C(=O)N[C@@H](C)C(=O)NCCc3ccccc3)CC2=O)cc1 (some centres not stated),"inconclusive: 6.51 µM [activator, single point]",
O=C(CN1CCCCCC1)N/N=C/c1cccs1,"inconclusive: 25.9 µM [cytotoxic, partial curve]",
Cc1nnc(SCC(=O)NNC(=O)c2ccccc2)n1N,,inconclusive: -10.7%
CCCC/C(O)=C1\C(=O)CC(C)(C)CC1=NCCCCCC(=O)O,,inconclusive: -5.44%

# Three entries out of the list, arranged by SMILES length, descending.
Compound,Potency,"lipid storage change, negative = inhibition"
O=C(CN1CC[C@@]2(O)CCCC[C@H]2[C@@H]1c1ccc(F)cc1)NCc1ccco1,,inconclusive: 7.3%
CCOc1ccc(C(C(=O)NC2CCCCC2)N(C(=O)c2ccccn2)c2cccnc2)cc1 (configuration not stated),,inconclusive: 44.2%
CCCn1nnnc1NCc1ccccc1F,,inconclusive: 12.1%

# Later entries.

Compound,Potency,"lipid storage change, negative = inhibition"
CC(=O)Nc1ccc2nc(SCC(=O)Nc3ccc(N4CCOCC4)c(Cl)c3)sc2c1,,inconclusive: -23.8%
COc1ccc2c(C)cc(N3CCN(Cc4ccccc4)CC3)nc2c1,,inconclusive: 18.1%
O=C(Cc1ncn[nH]1)NCCc1ccccc1,"inconclusive: 1.3 µM [falling, single point]",
O=c1cc(CSc2nnnn2-c2ccccc2)nc2sccn12,,inconclusive: 11%
CCN1C(=O)[C@@H]2Cc3c([nH]c4ccccc34)C(c3ccc(OC)cc3)N2C1=S (some centres not stated),"inconclusive: 1.84 µM [activator, partial curve]",
O=C(CNc1ccccc1N1CCCC1=O)Nc1cc(Cl)ccc1-n1cncn1,,inconclusive
CCCC1CCC(C(=O)n2nc(N)c3cc4ccc(OC)cc4nc32)CC1 (configuration not stated),,inconclusive: 27.8%
O=C(CSc1ncn(-c2ccccc2)n1)c1cccs1,,inconclusive: 0.318%
COc1ccc(C(=O)NC(=S)Nc2cccc(NC(=O)c3ccco3)c2)cc1[N+](=O)[O-],,inconclusive: -28.7%
CC(C)Cn1c(C(C)C)nc([N+](=O)[O-])c1S(=O)(=O)c1ccc(F)cc1,"inconclusive: 6.51 µM [falling, single point]",
CN(c1ccc([N+](=O)[O-])cc1/C=N/NC(=O)COc1ccccc1)C1CCCCC1,"inconclusive: 0.58 µM [activator, full curve]",
COc1ccc(S(=O)(=O)N2CCCC2)cc1C(C)C,,inconclusive: -79.2%
O=[N+]([O-])c1ccc(S(=O)(=O)CC2CSc3nc4ccccc4n32)cc1 (configuration not stated),active: 32.6 µM,
Cc1cc(NC(=O)COC(=O)c2c(C)nn(-c3ccccc3)c2C)no1,,inconclusive: 6.7%
CC(C)(C)c1ccc(C(=O)NNC(=S)NC(=O)c2cccnc2)cc1,,inconclusive: -91.7%
Cn1ccnc1SCC(=O)Nc1cccc2ccccc12,,inconclusive: 13.8%
CC(=O)c1ccc(S(=O)(=O)Nc2ccc(-n3cnnn3)cc2)cc1,"inconclusive: 0.0259 µM [activator, full curve, poor fit]",
CC(C)C(=O)N1CCN(C2=NS(=O)(=O)c3ccccc32)CC1,,inconclusive: -33.8%
O=C(NC1c2ccccc2-c2ccccc21)c1ccco1,,inconclusive: 46.5%
CCc1ccc(NC(=O)CSc2nc3ccccc3nc2N2CCCC2)cc1,"inconclusive: 29.1 µM [falling, single point]",
CCOC(=O)C(=O)Nc1nnc(SCc2ccc(F)cc2)s1,,inconclusive: 10.9%
O=C(c1cc(-c2cccc(O)c2)on1)N1CCCCCC1,"inconclusive: 29.1 µM [falling, single point]",
Nc1c(S(=O)(=O)c2cc(Cl)ccc2Cl)c2nc3ccccc3nc2n1CCN1CCOCC1,"inconclusive: 0.651 µM [activator, partial curve]",
Cc1ccc(S(=O)(=O)N/N=C\c2ccc(Cl)c([N+](=O)[O-])c2)cc1,,inconclusive: 20.9%
COc1ccc2nc(NC(=O)C3COc4ccccc4O3)sc2c1 (configuration not stated),"inconclusive: 6.51 µM [activator, single point]",

# Reference: PubChem BioAssay AID2685 (National Center for Advancing Translational Sciences (NCATS), 2010)
